Laboratory results taken from patent US8175860B2, “Method of inhibiting the growth of Helicobacter pylori” (priority 2009, dated 2012).
At least one structure is not confirmed: it was looked up by name or label, or the drawing left a doubt. Some entries share one result that the patent states for a list of compounds.

Protein sequences, listed by entry. Tags and fused reporters are not part of them. Lines headed by an entry give the natural chain unless they say otherwise; changes in a name come on top.
UniProt P56073: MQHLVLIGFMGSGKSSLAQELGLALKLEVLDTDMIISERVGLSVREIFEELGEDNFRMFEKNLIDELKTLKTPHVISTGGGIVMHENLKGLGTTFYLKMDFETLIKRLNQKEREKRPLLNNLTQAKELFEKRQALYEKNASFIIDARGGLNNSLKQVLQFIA
UniProt P9WPY3: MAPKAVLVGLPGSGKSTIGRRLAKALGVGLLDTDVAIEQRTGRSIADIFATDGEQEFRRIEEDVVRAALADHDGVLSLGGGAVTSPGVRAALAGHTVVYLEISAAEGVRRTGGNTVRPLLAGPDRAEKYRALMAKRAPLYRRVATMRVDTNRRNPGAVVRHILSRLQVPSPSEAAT

How the values were obtained:
[1] = target: HpSK (H. pylori shikimate kinase) (Helicobacter pylori, UniProt P56073); experiment: Shikimate kinase inhibitor activity assay (pyruvate kinase/lactate dehydrogenase coupled), HpSK; assay type: biochemical; conditions: ATP fixed at 2.5 mM, shikimate varied
Procedure: The shikimate kinase activity was determined by coupling the release of ADP from the shikimate kinase-catalyzed reaction to the oxidation of NADH using pyruvate kinase (EC 2.7.1.40) and lactate dehydrogenase (EC 1.1.1.27) as coupling enzymes. Shikimate-dependent oxidation of NADH was monitored by the decrease in A340 (ε=6,200 M^−1 cm^−1). The assay was carried out at 25° C. in a mixture containing 100 mM Tris/HCl/KOH buffer, pH 7.5, 50 mM KCl, 5 mM MgCl2, 1.6 mM shikimic acid, 2.5 mM ATP, 1 mM phosphoenolpyruvate, 0.1 mM NADH, 2.5 units of pyruvate kinase/ml, and 2.7 units of lactate dehydrogenase/ml. All assays were conducted in a 96-well microplate spectrophotometer (FLUOstar OPTIMA, BMG LABTECH). Kinetic parameters were obtained using nonlinear regression fitting to the Michaelis-Menten equation. The apparent Km values for each substrate were determined as follows: for ATP the shikimate concentration ([shikimate]) was maintained at 1.6 mM and the [ATP] varied in the range from 0.001 mM to 2.5 mM; for shikimate the [ATP] was maintained at 2.5 mM and the [shikimate] varied in the range from 0.005 to 1.6 mM. The kinetic data were fit to the appropriate equations using the program GraphPad Prism 4 (Software Inc., USA). The kinetic data for determining the Km values were fit to
using the program GraphPad Prism 4 where v was the initial velocity, Vmax was the maximum velocity, Km was the Michaelis constant and [S] was the substrate (shikimate or ATP) concentration. The IC50 value for HpSK inhibition by inhibitors was determined by fitting data to
where v was the initial velocity, Vmax was the maximum velocity, Vmin was the minimum velocity, [I] was the concentration of compounds and n was the Hill slope.
Using GEMDOCK virtual docking and pharmarcophore model, several compounds were selected to assay inhibitor activity for verifying the inhibiting effect on HpSK and MtSK enzyme. Based on the procedure of enzyme activity assay, the initial velocities of the enzyme activity were determined in the presence of compounds (50 μM) dissolved in dimethylsulfoxide (DMSO). The final DMSO concentration in all assay mixtures was 5% (v/v). The assay buffer contained 100 mM Tris/HCl/KOH (pH 7.5), 1.6 mM shikimic acid, 2.5 mM ATP. The reaction was initiated by the addition of the diluted HpSK and MtSK enzyme (85 nM). After the preliminary screening, several compounds were identified to inhibit HpSK and MtSK enzyme activity. The initial velocities of the enzyme activity were determined in the presence of various concentrations of these compounds to investigate the dose-dependent inhibition effects. […] Afterwards, inhibitor modality was determined by measuring the effects of inhibitor concentrations on the enzymatic activity as a function of substrate concentration. […]

[2] = target: MtSK (M. tuberculosis shikimate kinase) (Mycobacterium tuberculosis, UniProt P9WPY3); experiment: Shikimate kinase inhibitor activity assay (pyruvate kinase/lactate dehydrogenase coupled), MtSK; assay type: biochemical; conditions: ATP fixed at 2.5 mM, shikimate varied

## Cc1cc(/N=N/c2ccc(/N=N/c3ccc(/N=N/c4ccc(O)c(C(=O)O)c4)cc3)c(S(=O)(=O)O)c2C)c(N)cc1N [Compound 6, 5-((E)-(4-((E)-(4-((E)-(2,4-diamino-5-methylphenyl)diazenyl)-3-methyl-2-sulfonatophenyl)diazenyl)phenyl)diazenyl)-2-hydroxybenzoate]
[1]
  inhibition mode with respect to shikimate (SKM): competitive
[2]
  inhibition mode with respect to shikimate (SKM): competitive

## 5-((E)-(4-((E)-(2-benzyl-8-hydroxy-6-sulfonatonaphthalen-1-yl)diazenyl)phenyl)diazenyl)-2-hydroxybenzoate [Compound 7]
[1]; listed as compound 7
  inhibition mode with respect to shikimate (SKM): competitive
[2]; listed as compound 7
  inhibition mode with respect to shikimate (SKM): competitive

## O=C(O)c1cc(/N=N/c2ccc(/N=N/c3c(Cc4ccccc4)ccc4cc(S(=O)(=O)O)cc(O)c34)cc2)ccc1O [Compound 7, 5-((E)-(4-((E)-(2-benzyl-8-hydroxy-6-sulfonatonaphthalen-1-yl)diazenyl)phenyl)diazenyl)-2-hydroxybenzoate]
[1]
  inhibition mode with respect to shikimate (SKM): competitive
[2]
  inhibition mode with respect to shikimate (SKM): competitive

## 5-((E)-(4-((E)-(4-((E)-(2,4-diamino-5-methylphenyl)diazenyl)-3-methyl-2-sulfonatophenyl)diazenyl)phenyl)diazenyl)-2-hydroxybenzoate [Compound 6]
[1]; listed as compound 6
  inhibition mode with respect to shikimate (SKM): competitive
[2]; listed as compound 6
  inhibition mode with respect to shikimate (SKM): competitive
